In the supplement of paper PMC6411743:
± gives the standard deviation of the averaged measurements. The list shows a part of the results, in another mix than the full data. Most entries show no effect beyond the scatter of the controls.

Molecular target: A0A0A0MT26|P13637 and related entries (UniProt P13637)
Test: NP40-soluble protein abundance relative to vehicle (solubility fold change) (ratio); higher = more soluble protein in presence of AMP-PNP
Procedure, shortened: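 Each value is a fold change relative to the detergent-processed vehicle, calculated per replicate from vsn-normalised intensities. Jurkat crude lysate received eight concentrations (0.1 to 10 mM) for 10 min at room temperature and 3 min at 37 °C, then was solubilised in 0.8% NP40 with benzonase (60 min, 4 °C). The ultracentrifuged supernatant was TMT-labelled and run by LC-MS/MS in three independent experiments.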

Question: For `Nc1ncnc2c1ncn2[C@@H]1O[C@H](COP(=O)(O)OP(=O)(O)NP(=O)(O)O)[C@@H](O)[C@H]1O` [adenylyl imidodiphosphate], which NP40-soluble protein abundance (concentration: 0.1mM) is on record?
Answer: 0.9926 ± 0.0077

Question: And the NP40-soluble protein abundance (concentration: 0.5mM)?
Answer: 1 ± 0.03
